Reference: US9809597B2, “Ganciclovir derivatives for modulating innate and adaptive immunity and for use in immunotherapy” (The Board of Trustees of the Leland Stanford Junior …, priority 2015, dated 2017)
At least one compound was matched to its structure with a doubt left.

Test system: BV-2 cells
Test: RT-PCR for CXCL10 and IFNβ transcripts in BV-2 cells
Assay type: cell-based, mouse
Settings: 24 hours; for inhibition of CXCL10 production in response to GCV and diGCV: 10 μM Fludarabine or 1 μM Jak inhibitor with 200 μM GCV or diGCV; for inhibition of CXCL10 production in response to cGAMP: 10 μM Fludarabine or 1 μM Jak inhibitor with 200 μM cGAMP
Experimental: BV-2 mouse microglia cells were grown in DMEM+10% FBS and THP-1 human monocyte cells were grown in RPMI-40+10% FBS+0.05 mM β-mercaptoethanol at 37° C., 5% CO2. Adherent cells were split using 1×TrypLE (Gibco). For cellular assays, cells were treated with the following concentrations of drugs as indicated in the DMEM without serum: 100-200 μM ganciclovir, 10 ng/ml IFNγ (R&D systems), 100 ng/ml LPS (Sigma-Aldrich), 1-10 μM Fludarabine (Selleckchem), 1 μM Ruxolitinib (Selleckchem), 1 μM TG-101348 (Selleckchem), 1 μM Amlexanox (Tocris bioscience) unless otherwise noted. All experiments were run in triplicates and replicated at least 3 times with cell lines and at least twice with primary microglia. Average data are shown for cell lines and representative data are shown for primary cells. Secreted signaling proteins were measured in supernatants from cultured cells stimulated with GCV and conditioned for 24 hours in the absence of serum using two independent Luminex arrays (Human Immune Monitoring Center, Stanford and Eve technologies, Canada). Nitrite assay was performed on conditioned culture supernatants of cells stimulated with drugs for 24 hours using the Griess Reagent System (Promega) according to manufacturer's instructions. To assess cellular viability, cell confluence was measured using an automated microscope (Cellavista; Roche).
RNA was isolated from cells using RNeasy mini kit from Qiagen. DNased RNA was converted to cDNA using SuperScript III reverse transcriptase kit (Life technologies). The cDNA was used to quantify specific targets using SYBR green in Roche Lightcycler 480. ΔΔCt values normalized against the experimental control to determine fold change in mRNA for each sample compared to untreated or vehicle treated control. β-actin or Ubc or both were used as housekeeping genes. Primer sequences were obtained from PrimerBank. Fold change is shown compared to the vehicle treated or untreated cells, unless otherwise noted.

Compound	inhibition of CXCL10 production in response to GCV and diGCV	inhibition of CXCL10 production in response to cGAMP
N#CC[C@H](C1CCCC1)n1cc(-c2ncnc3[nH]ccc23)cn1 [Ruxolitinib]	strongly inhibited	somewhat less pronounced
Nc1nc(F)nc2c1ncn2[C@@H]1O[C@H](CO)[C@@H](O)[C@@H]1O [Fludarabine]	strongly inhibited	somewhat less pronounced
